Patent US20090221095A1, “Colorimetric Screening of DNA Binding/Intercalating Agents with Gold Nanoparticle Probes” (NORTHWESTERN UNIVERSITY, priority 2005, published 2009)
At least one structure is not confirmed: it was looked up by name or label, or the drawing left a doubt.

What was measured:
Format in all cases: binding
[1] = system: triplex DNA (NP-1/DNA-3/NP-2); assay: Colorimetric triplex binder assay: aggregation of NP-1, NP-2 gold nanoparticles and free DNA-3; settings: NP-1 and NP-2 1.5 nM each, DNA-3 150 nM, binder 5 μM, 10 mM PBS pH 7.0, NaCl 0.5 M, room temperature
From the text: This method utilizes the aggregation-induced, red-to-blue color change associated with 13 nm gold (Au) nanoparticles. The assay consists of two sets of gold nanoparticles NP-1 and NP-2, and a free strand of DNA, DNA-3. […] DNA-3 is complementary to NP-1 with a two base dangling end to prevent noncross-linked NP-1 aggregation. When NP-1 and DNA-3 are combined, they form nonaggregate linking duplexes on the nanoparticle surface. […] However, introduction of a strong triplex binding agent, benzo[e]pyridoindole (BePl), stabilizes triplex formation through Hoogsteen-type Py-PaPy triplet base hydrogen bonds and induces nanoparticle aggregation resulting in a concomitant red-to-blue color change due to a red-shifting and dampening of the nanoparticle plasmon resonance (Scheme 1).
This assay is prepared by combining NP-1 and NP-2 (1.5 nM each) in a 1:1 molar ratio in 10 mM PBS buffer (pH=7.0, NaCl 0.5 M) with DNA-3 (150 nM) and BePl (5 μM). […] This stabilization results in a dramatic decrease in absorbance at 520 nm accompanied by a red-to-blue color change. Note that in the absence of DNA-3, NP-1 and NP-2 cannot form aggregates even in the presence of a strong triplex binder (FIG. 1B). […]

[2] = system: triplex DNA (DNA-1, DNA-2, DNA-3); assay: UV melting (260 nm) of unmodified triplex DNA-1, DNA-2, DNA-3 (no nanoparticles); settings: duplex melting transition; solution-phase unmodified DNA, 1 μM each strand, 6 μM binder, 0.5 M NaCl 10 mM PBS
Description: To compare the results from the previous examples with more traditional screening techniques, all eight intercalators were screened, plus a control, by monitoring UV absorbance melting curves (260 nm) of unmodified DNA-1, DNA-2, and DNA-3 (1 μM each), with each intercalator (10 μM), (DNA-1; 3′ TTCTTCTTTTTT CT-5′. DNA-2: 5′-TTCTTCTTTTTTCT-3′, DNA-3: 5′-AAGAAGAAAAAA-3′). (FIG. 2B). The melting experiment performed in the presence of BePl has two melting transitions. The first Tm at 34.8° C. is associated with the denaturation of the triplex structure and the second Tm at 61.4° C. is representative of the corresponding duplex.
To determine the Tm of the duplex DNA in the presence of DNA binders, 2 μM duplex DNA and 5 μM DNA binder were combined in 0.3 M NaCl 10 mM PBS. […] UV-vis melting curves were measured on a CARRY 500 spectrophotometer equipped with a circulating bath. The melting process was monitored by measuring the change in extinction at 260 nm. […]
A melting transition associated with the triple helix was found only for experiments performed in the presence of BePI (34.8° C.) and CORA (17.1° C.) where BePI is determined to be the stronger binder. This is in agreement with the results determined by the chip-based scanometric method described above.

[3] = system: duplex DNA between NP-1 and NP-2; assay: Melting temperature of NP-1/NP-2 gold nanoparticle duplex nanoassemblies (520 nm); settings: NP-1 and NP-2 1.5 nM each, intercalator 5 μM, 10 mM PBS pH 7.0, NaCl 0.1 M, control 26.4
From the text: This method also utilizes the aggregation-induced, red-to-blue color change associated with 13 nm Au nanoparticles. Gold nanoparticles are functionalized with one of two complementary thiol-modified oligonucleotide strands and are denoted NP-1 and NP-2. When NP-1 and NP-2 are combined, they form aggregates through a reversible DNA hybridization process. This process results in a red-to-blue color change due to a red-shifting and dampening of the nanoparticle plasmon resonance. Increasing the temperature above the melting temperature of the DNA reverses the process, and the particles dissociate with a concomitant blue-to-red color change. […] This increased stability is reflected by an increase in melting temperature. Note that the shape and breadth of the transition is almost independent of the intercalator (FIG. 4). Therefore, by monitoring the blue-to-red color transition of hybridized oligonucleotide-modified Au nanoparticles in the presence of different compounds, the relative strength of intercalator binding can be determined with the naked-eye. […]

[4] = system: unmodified duplex DNA (DNA-1: 5′-TAACAATAA-3′, DNA-2: 5′-TTATTGTTA-3′); assay: Melting temperature of solution-phase unmodified duplex DNA (no nanoparticles); settings: 2 uM duplex DNA, 5 uM DNA binder; control (no DNA binder) 19.1
Description: The assay is initiated by mixing NP-1 and NP-2 (1.5 nM each) in a 1:1 molar ratio in 10 mM PBS buffer (pH=7.0, NaCl 0.1 M. The melting temperatures of the nanoassemblies (NP-1 and NP-2) were then determined in the presence of 4′,6-diamidino-2-phenylindole (DAPI), ellipticine (EIPT), Amsacrine (AMSA), daunorubicin (DNR), anthraquinone-2-carboxylic acid (AQ2A), ethidium bromide (EB), and 9-aminoacridine (9-AA) (5 μM), respectively. UV melting profiles were measured by monitoring the absorbance at 520 nm at a scan rate of 0.5° C. min^−1. Melting temperatures were determined by taking the maxima of the first derivative of the melting curves. Control experiments were run by determining the melting temperatures of unmodified duplex DNA (DNA-1: 5′-TAACAATAA-3′, DNA-2: 5′-TTATTGTTA-3′) in the presence of all seven intercalators shown in Table 1.
To determine the Tm of the duplex DNA in the presence of DNA binders, 2 μM duplex DNA and 5 μM DNA binder were combined in 0.3 M NaCl 10 mM PBS. To determine the Tm of the triplex DNA in the presence of DNA binders, 1 μM of each strand and 6 μM of each DNA binder were combined in 0.5 M NaCl 10 mM PBS. UV-vis melting curves were measured on a CARRY 500 spectrophotometer equipped with a circulating bath. The melting process was monitored by measuring the change in extinction at 260 nm. […]

[5] = system: triplex DNA on chip surface; assay: Chip-based scanometric detection of triplex DNA binders (silver enhancement); settings: varying salt concentrations (0.1 to 0.3 M NaCl), binder 5 μM, DNA-3 150 nM
Description: For scanometric detection of duplex or triplex DNA binding molecules, Au nanoparticles (1 nM) and DNA binding molecules (5 μM) in 10 mM PBS buffer of varying NaCl concentrations were added to the microarray slide under hybridization wells (Nanosphere, Inc.). For detection of triplex binders, 150 nM DNA-3 was added. DNA hybridization proceeded for 30 min (for duplex DNA binders) or 1 h (for triplex DNA binders) in a humidity chamber. After hybridization, the slides were washed three times with 0.5 M NaNO3 containing 0.02% Tween 20. The arrays were dried using a benchtop spinner. Silver enhancement solution (Nanosphere, Inc.) was added for Au-NP signal amplification (1 mL total volume/array, 1.5-min development time for duplex DNA binding molecules and 3 min for triplex binding molecules). The reaction was terminated by washing the slides with NANOpure® water and spin-drying. Light-scattering images from the silver-enhanced chips were recorded using the high-resolution Verigene ID system (Nanosphere, Inc.).
Capture strands of synthetic oligonucleotides are patterned on a glass chip using a microarrayer. The DNA chip is then exposed to a solution containing three components: 1) complementary DNA (no nanoparticles), 2) DNA functionalized Au nanoparticles (DNA is non-complementary to the arrayed DNA) and 3) DNA binders, Scheme 4. […]

`COc1cc(NS(C)(=O)=O)ccc1Nc1c2ccccc2nc2ccccc12` [AMSA, Amsacrine] was tested, and the “nanoparticle aggregation (decrease in absorbance at 520 nm, red-to-blue color change)” value [1] was “no nanoparticle aggregation”, the “Tm 2-1” value [2] was 59.2 °C and the Tm^a, melting temperature of nanoassemblies [3] was 27.2 °C. For the same molecule, the “Tm, melting temperature of solution-phase unmodified DNA” value [4] was 19.5 °C and the scanometric signal [5] was “No signal”.
